What all share (settings): 5 µM; treatment: days 7-14 after plating, readout day 21
Experiment [1] deals with hPSC-derived cortical neurons (WA09). As to the kind of experiment: nucleus area z-score vs screen plate; higher = larger nuclei (more mature).
Experiment [2] shares this test system. As to the kind of experiment: total neurite length per nucleus (MAP2) z-score; higher = more neurite growth.
Experiment [3] has the same test system. As to the kind of experiment: nucleus roundness z-score vs screen plate; higher = rounder nuclei (more mature).
Experiment [4] shares this test system. Description: KCl-induced FOS+/EGR-1+ double-positive nuclei fraction z-score (KCl minus unstimulated); higher = stronger activity-induced IEG response.

Structures can show the parent of a compound that is named as a salt. ± gives the standard deviation of the averaged measurements. Some of the results follow. Most values lie at the level of the controls, where differences are scatter.

As to `O=C(O)CC1CC(c2ccccc2)=NO1` (stereo not drawn), the nucleus area z-score in experiment [1] is 0.566. For the same compound, the “total neurite length per nucleus (z-score)” value in experiment [2] is 0.737. This compound yielded a nucleus roundness z-score in experiment [3] of 1.58. Also, the “KCl-induced FOS+/EGR-1+ double-positive nuclei fraction z-score” value in experiment [4] is 0.522.
On the same counts, the results for `COc1cc(Nc2ncc(F)c(Nc3ccc4c(n3)N(COP(=O)(O)O)C(=O)C(C)(C)O4)n2)cc(OC)c1OC` [Fostamatinib (R788)] are 0.765, 0.0418, -1.35 and -1.62.
On the same counts, the results for `O=C(NCCS(=O)(=O)c1ccc(C(F)(F)F)cn1)c1ccc(Cl)cc1` are -0.2, 0.228, 0.361 and 1.22.
In the case of `Cc1ccc(CNc2ncnc3ccc(-c4ccc(CO)o4)cc23)o1`, the nucleus area z-score in experiment [1] came to 1. For the same compound, the “total neurite length per nucleus (z-score)” value in experiment [2] was 0.354. In experiment [3], this compound came in with a nucleus roundness z-score of -0.818. The “KCl-induced FOS+/EGR-1+ double-positive nuclei fraction z-score” value in experiment [4] is 1.26.
Regarding `CO/N=C(\C(=O)N[C@@H]1C(=O)N2C(C(=O)O)=C(CSc3nnnn3C)CS[C@H]12)c1csc(N)n1` [Cefmenoxime hydrochloride], the nucleus area z-score in experiment [1] is 0.232. For the same compound, the “total neurite length per nucleus (z-score)” value in experiment [2] was -0.976. Besides, the nucleus roundness z-score in experiment [3] was -0.518. Moreover, the “KCl-induced FOS+/EGR-1+ double-positive nuclei fraction z-score” value in experiment [4] came out at 0.628.
For the compound `C[C@@H]1C/C=C/C=C/C=C/C=C/[C@H](O[C@@H]2O[C@H](C)[C@@H](O)[C@H](N)[C@@H]2O)C[C@@H]2O[C@](O)(C[C@@H](O)C[C@H]3O[C@@H]3/C=C/C(=O)O1)C[C@H](O)[C@H]2C(=O)O` [Natamycin], the nucleus area z-score in experiment [1] is 0.798. The “total neurite length per nucleus (z-score)” value in experiment [2] worked out at 0.668. In experiment [3], this compound had a nucleus roundness z-score of 0.206. For the same compound, in experiment [4], the “KCl-induced FOS+/EGR-1+ double-positive nuclei fraction z-score” value stood at 0.818.
On the same counts, the results for `CS(=O)(=O)c1ccc([C@@H](O)[C@@H](CF)NC(=O)C(Cl)Cl)cc1` [Florfenicol] are -0.594, -0.171, -0.00376 and 2.45.
Regarding `CC(C)[C@H](C(=O)Nc1ccc(C(=O)NO)cc1)c1ccccc1`, the nucleus area z-score in experiment [1] is -17.1. Moreover, the “total neurite length per nucleus (z-score)” value in experiment [2] is -6.43. Further, in experiment [3], the nucleus roundness z-score is -7.86. In addition, the “KCl-induced FOS+/EGR-1+ double-positive nuclei fraction z-score” value in experiment [4] is -1.58.
On the same counts, the results for `COc1cc2nc(N3CCN(C(=O)C4CCCO4)CC3)nc(N)c2cc1OC` (stereo not drawn) [Terazosin HCl] are 0.198 ± 1, 0.0173 ± 0.48, -0.542 ± 1.4 and 0.472 ± 0.054.
On the same counts, the results for `CCNc1nc(Nc2cc(F)c(C(=O)N3CCOCC3)cc2OC)ncc1C(F)(F)F` are 1.63, 1.45, 1.42 and 3.01.
In experiment [1], `Cc1onc(-c2ccccc2)c1C(=O)N[C@@H]1C(=O)N2[C@@H]1SC(C)(C)[C@@H]2C(=O)O` [Oxacillin sodium monohydrate] displayed a nucleus area z-score of -0.205. Besides, in experiment [2], the “total neurite length per nucleus (z-score)” value was -0.446. Besides, the nucleus roundness z-score in experiment [3] was -0.676. For the same compound, the “KCl-induced FOS+/EGR-1+ double-positive nuclei fraction z-score” value in experiment [4] was -0.126.
As to `COc1ccc(C2CC(=O)c3c(O)cc(OC4OC(COC5OC(C)C(O)C(O)C5O)C(O)C(O)C4O)cc3O2)cc1OC` (stereo not drawn) [Methyl-Hesperidin], the nucleus area z-score in experiment [1] was determined as 0.0515. The “total neurite length per nucleus (z-score)” value in experiment [2] was determined as 1.43. In experiment [3], this compound showed a nucleus roundness z-score of 0.788. Further, in experiment [4], the “KCl-induced FOS+/EGR-1+ double-positive nuclei fraction z-score” value turned out to be 1.21.
On the same counts, the results for `Cc1nc(Nc2ncc(C(=O)Nc3c(C)cccc3Cl)s2)cc(N2CCN(CCO)CC2)n1` [Dasatinib Monohydrate] are -4.95, -3.99, -0.974 and -0.563.
On the same counts, the results for `O=C(Oc1cccc(F)c1OC(=O)c1cccc(O)c1)c1cccc(O)c1` are -4.14, -2.44, -2.66 and -1.06.
On the same counts, the results for `COc1ccc(C2=N[C@@H](c3ccc(Cl)cc3)[C@@H](c3ccc(Cl)cc3)N2C(=O)N2CCNC(=O)C2)c(OC(C)C)c1` [Nutlin-3a] are -1.78, 0.719, 0.849 and -0.0521.
As to `CC(NC(=O)C(Cc1ccccc1)NC(=O)OCc1ccccc1)C(=O)CF` (stereo not drawn), the nucleus area z-score in experiment [1] amounted to 0.59. In addition, in experiment [2], the “total neurite length per nucleus (z-score)” value worked out at 0.305. This compound came in with a nucleus roundness z-score in experiment [3] of -1.76. The “KCl-induced FOS+/EGR-1+ double-positive nuclei fraction z-score” value in experiment [4] was -0.554.
On the same counts, the results for `Clc1ccc2nsnc2c1NC1=NCCN1` [Tizanidine HCl] are 0.117, -0.302, -0.893 and -0.211.
On the same counts, the results for `N=C(N)NCCC[C@H](N)C(=O)O` [L-Arginine HCl (L-Arg)] are 0.0676, -0.171, 0.341 and 0.752.
On the same counts, the results for `CC(NC(=O)c1ccccc1/N=C/c1c(O)ccc2ccccc12)c1ccccc1` (stereo not drawn) [Sirtinol] are 0.227, -0.907, -1.36 and 0.537.
In the case of `COc1ccc(-c2cc3c(C)nc(N)nc3n([C@H]3CC[C@H](OCCO)CC3)c2=O)cn1`, the nucleus area z-score in experiment [1] is -3.76. For the same compound, the “total neurite length per nucleus (z-score)” value in experiment [2] was -0.831. The compound also registered a nucleus roundness z-score in experiment [3] of 0.282. In addition, the “KCl-induced FOS+/EGR-1+ double-positive nuclei fraction z-score” value in experiment [4] is -0.9.
On the same counts, the results for `Cc1nnc(SCC2=C(C(=O)O)N3C(=O)[C@@H](NC(=O)Cn4cnnn4)[C@H]3SC2)s1` [Cefazolin Sodium] are 0.433, 1.2, 0.611 and 1.22.
On the same counts, the results for `Cc1cccc(C)c1OCC(=O)N[C@@H](Cc1ccccc1)[C@@H](O)C[C@H](Cc1ccccc1)NC(=O)[C@H](C(C)C)N1CCCNC1=O` [Lopinavir] are -0.982, 0.0469, 0.629 and -0.437.
On the same counts, the results for `CNC[C@H](O)c1cccc(O)c1` [Phenylephrine HCl] are 0.676, -1.59, -1.88 and -0.397.
In experiment [1], `COCC[n+]1c2c(n(Cc3cnccn3)c1C)C(=O)c1ccccc1C2=O` [YM155 (Sepantronium Bromide)] showed a nucleus area z-score of -8.39. In addition, the “total neurite length per nucleus (z-score)” value in experiment [2] was -1.53. Also, in experiment [3], the nucleus roundness z-score came out at 0.971. Further, the “KCl-induced FOS+/EGR-1+ double-positive nuclei fraction z-score” value in experiment [4] was -1.
On the same counts, the results for `COCCCN1CCC(NC(=O)c2cc(Cl)c(N)c3c2OCC3)CC1` [Prucalopride Succinat] are 0.783, -0.598, -0.953 and -1.3.
On the same counts, the results for `CC[C@H]1[C@@H](O)[C@@H]2[C@H](CC[C@]3(C)[C@@H]([C@H](C)CCC(=O)O)CC[C@@H]23)[C@@]2(C)CC[C@@H](O)C[C@@H]12` [Obeticholic Acid] are 0.206, -0.483, 0.0334 and 0.0484.
On the same counts, the results for `CCCC(=O)[O-].[Na+]` [Sodium butyrate] are 0.17, 0.568, -0.0265 and 0.61.

(Values after the supplement of paper PMC11348887.)
